Laboratory results taken from publication doi:10.1101/346296.
No constants are given. Whether binding was seen depends on the method and setting. Some binding calls cover weakened binding; strength is not graded here.

The chains behind the UniProt entries cited, without tags or fusion partners. Where a name states a change or a piece, a line headed by the entry shows the natural chain unless it says otherwise.
UniProt P11978: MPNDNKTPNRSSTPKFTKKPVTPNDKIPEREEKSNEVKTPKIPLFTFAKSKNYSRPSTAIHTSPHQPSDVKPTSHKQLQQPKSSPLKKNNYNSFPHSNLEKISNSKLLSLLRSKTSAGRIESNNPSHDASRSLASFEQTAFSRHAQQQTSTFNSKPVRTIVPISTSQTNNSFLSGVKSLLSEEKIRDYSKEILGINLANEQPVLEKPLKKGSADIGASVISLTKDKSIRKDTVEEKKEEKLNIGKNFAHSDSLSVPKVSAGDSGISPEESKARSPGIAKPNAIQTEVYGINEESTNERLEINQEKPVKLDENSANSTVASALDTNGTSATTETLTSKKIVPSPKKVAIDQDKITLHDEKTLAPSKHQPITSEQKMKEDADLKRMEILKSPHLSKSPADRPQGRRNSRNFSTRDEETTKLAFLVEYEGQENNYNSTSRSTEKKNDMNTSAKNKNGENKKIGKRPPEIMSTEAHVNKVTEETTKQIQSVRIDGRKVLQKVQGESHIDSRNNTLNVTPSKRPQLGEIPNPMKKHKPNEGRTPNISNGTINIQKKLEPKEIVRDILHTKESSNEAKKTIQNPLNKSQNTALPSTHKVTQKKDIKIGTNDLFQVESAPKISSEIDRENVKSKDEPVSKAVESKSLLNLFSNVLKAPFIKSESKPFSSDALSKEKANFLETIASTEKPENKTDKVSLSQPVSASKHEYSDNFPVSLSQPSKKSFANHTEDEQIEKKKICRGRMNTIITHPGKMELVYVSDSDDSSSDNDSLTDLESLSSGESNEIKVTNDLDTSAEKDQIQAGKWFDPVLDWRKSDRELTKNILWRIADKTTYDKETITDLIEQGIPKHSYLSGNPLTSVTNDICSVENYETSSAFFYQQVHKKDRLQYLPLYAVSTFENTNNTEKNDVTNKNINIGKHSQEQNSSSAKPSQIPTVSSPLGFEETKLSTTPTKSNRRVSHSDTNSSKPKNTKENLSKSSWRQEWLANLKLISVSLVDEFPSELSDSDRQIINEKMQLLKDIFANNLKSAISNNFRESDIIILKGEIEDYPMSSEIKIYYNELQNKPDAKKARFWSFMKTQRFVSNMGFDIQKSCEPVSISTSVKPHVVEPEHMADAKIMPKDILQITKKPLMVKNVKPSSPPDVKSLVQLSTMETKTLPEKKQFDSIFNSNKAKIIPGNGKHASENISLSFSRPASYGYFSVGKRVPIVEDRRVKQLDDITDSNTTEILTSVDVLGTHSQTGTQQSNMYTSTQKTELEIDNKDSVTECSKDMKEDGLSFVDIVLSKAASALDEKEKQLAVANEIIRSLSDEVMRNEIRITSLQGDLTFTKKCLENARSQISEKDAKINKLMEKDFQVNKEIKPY
UniProt P06700: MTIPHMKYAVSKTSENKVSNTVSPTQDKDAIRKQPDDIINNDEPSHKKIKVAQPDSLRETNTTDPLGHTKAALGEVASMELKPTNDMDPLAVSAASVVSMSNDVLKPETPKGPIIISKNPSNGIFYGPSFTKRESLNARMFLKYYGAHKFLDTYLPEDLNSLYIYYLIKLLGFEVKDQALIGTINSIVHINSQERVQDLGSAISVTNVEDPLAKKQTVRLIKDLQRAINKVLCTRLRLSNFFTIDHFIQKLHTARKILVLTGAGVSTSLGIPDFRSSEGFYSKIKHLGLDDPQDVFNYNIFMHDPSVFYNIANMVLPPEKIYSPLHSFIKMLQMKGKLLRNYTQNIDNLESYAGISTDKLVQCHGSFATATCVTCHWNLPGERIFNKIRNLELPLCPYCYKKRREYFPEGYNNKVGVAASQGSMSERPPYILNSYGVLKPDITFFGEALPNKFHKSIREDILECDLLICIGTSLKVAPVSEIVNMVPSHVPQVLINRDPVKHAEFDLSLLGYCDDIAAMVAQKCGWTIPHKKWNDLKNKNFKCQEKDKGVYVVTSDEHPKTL

Columns and labels:
[1] = target: Sir4I1311N (S. cerevisiae) (UniProt P11978); experiment: tandem affinity co-purification
Sir4 (S. cerevisiae) = Sir4 (S. cerevisiae) (UniProt P11978); experiment: tandem affinity co-purification

- binding [1]: binds
- binding (Sir4 (S. cerevisiae)): binds
Substance: Sir2 (from UniProt P06700 1-562) (enzyme)
